Test results reported in the supplement of paper PMC4635364.
Counter-ions that a name gives are not always drawn. Some of the results follow. Single values are uncertain here, since repeats match poorly.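 ReNCell VM, a human fetal ventral-midbrain neural progenitor line, was differentiated without mitogens. Blinded raters scored images stained for doublecortin (early neurons) or tyrosine hydroxylase (dopaminergic neurons) against untreated wells (0 = no change). Scores were averaged across repeats and both raters, and compounds averaging 2 or more were selected as hits for retesting.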

test system: ReNCell VM; assay: neuronal differentiation score (DCX+ cell fraction vs untreated, manual image score) (score (-3 to 3)); higher = more neuronal differentiation; conditions: library: LOPAC; 2 uM; 2 weeks

Neuronal differentiation score, inactive:
NCCSSCCN [Cystamine dihydrochloride] 0
CCCCS(=N)(=O)CCC(N)C(=O)O (racemic) [DL-Buthionine-[S,R]-sulfoximine] 0
COc1ccccc1NC(=O)Nc1nc(-c2cccnc2)nc2ccccc12 0
N[C@@H](C(=O)N[C@@H]1C(=O)N2C(C(=O)O)=C(Cl)CS[C@H]12)c1ccccc1 [Cefaclor] 0
COc1ccc(CC(C)NCC(O)c2ccc(O)c(NC=O)c2)cc1 (configuration not stated) [Formoterol] -1
CCN(CC)C(=O)c1ccc(O)c(OC)c1 [Vanillic acid diethylamide] -1
C[N+](C)(C)CCOC(=O)CCC(=O)OCC[N+](C)(C)C [Succinylcholine chloride] 1

same assay, conditions: library: Natural; 2 uM; 2 weeks

Neuronal differentiation score, inactive:
OC1COC2C(O)COC12 (configuration not stated) [1,4:3,6-dianhydromannitol] 0
CC(C)=CCC1=C(O)C(=O)c2ccccc2C1=O [2-hydroxy-3-prenylnaphthoquinone] 0
COc1ccc2c(c1OC)C(=O)N1c3ccccc3C(=O)OC21 (configuration not stated) 0
C[C@H]1CCC([C@@H](C)[C@H]2CC[C@H]3[C@@H]4CC(=O)[C@H]5C[C@@H](O)CC[C@]5(C)[C@H]4CC[C@]23C)=NC1 [petiline] 0

same assay, conditions: library: Prestwick; 2 uM; 2 weeks

Neuronal differentiation score, inactive:
CCCOc1cc(N)ccc1C(=O)OCCN(CC)CC [Propoxycaine hydrochloride] 0
CCN1CCC[C@H]1CNC(=O)c1c(OC)ccc(Br)c1OC [Remoxipride Hydrochloride] 0
CC(O)(P(=O)(O)O)P(=O)(O)O [Etidronic acid, disodium salt] 0
O=C1CCc2ccc(OCCCCN3CCN(c4cccc(Cl)c4Cl)CC3)cc2N1 [Aripiprazole] 0
O=C1CN(/N=C/c2ccc(-c3ccc([N+](=O)[O-])cc3)o2)C(=O)N1 [Dantrolene sodium salt] 0

same assay, conditions: library: Spectrum; 2 uM; 2 weeks

Neuronal differentiation score, inactive:
CN(C)CCCN1c2ccccc2Sc2ccc(C(F)(F)F)cc21 0
N[C@@H](C(=O)O)[C@@H](O)[C@H](O)[C@H](O)CO 0
Cc1ccc(NC(=O)c2ccc(CN3CCN(C)CC3)cc2)cc1Nc1nccc(-c2cccnc2)n1 0
CC(C)(Oc1ccc(C2CC2(Cl)Cl)cc1)C(=O)O (configuration not stated) 0
C[C@]12C=CC(=O)C=C1CC[C@@H]1[C@@H]2[C@@H](O)C[C@@]2(C)[C@H]1CC[C@]2(O)C(=O)CO 0
CCCCNC(=O)NS(=O)(=O)c1ccc(C)cc1 -1
COc1c(-c2coc3cc4c(cc3c2=O)CC(OC(C)=O)C(C)(C)O4)ccc2c1C=CC(C)(C)O2 (configuration not stated) 0
CC(C)(CO)[C@@H](O)C(=O)NCCC(=O)O [PANTOTHENIC ACID(d) Na salt] 0
O=c1ccc2ccccc2o1 0
C[C@@H]1O[C@@H]1P(=O)(O)O 0
CC(C)(S)[C@@H](N)C(=O)O 0
CCOC(=O)n1ccn(C)c1=S 0
CCCCC(=O)O[C@]1(C(=O)CO)CC[C@H]2[C@@H]3CCC4=CC(=O)CC[C@]4(C)[C@H]3[C@@H](O)C[C@@]21C 0
O=c1cc(-c2ccc(O)cc2)oc2ccc(O)cc12 0
CC(C)(c1ccc(O)cc1)c1ccc(O)cc1 0
COC(=O)[C@@H]1OC(=O)C2OC23[C@@]1(C)CCC1[C@@]2(C)CCC(=O)C(C)(C)C2C[C@@H](OC(C)=O)[C@]13C (some centres not stated) 0
NCCNC(=O)c1ccc(Cl)cc1 0
COc1ccc(C=CC(=O)O)cc1OC 0
Cc1cn([C@H]2C=C[C@@H](CO)O2)c(=O)[nH]c1=O 0
COc1ccc(-c2cc(=O)c3c(OC)c(OC)c(OC)c(OC)c3o2)cc1OC 0

Fetched by compound from the entries so far:
Neuronal differentiation score, inactive:
O=c1cc(-c2ccc(O)cc2)oc2ccc(O)cc12 0
CC(C)(S)[C@@H](N)C(=O)O 0
COc1c(-c2coc3cc4c(cc3c2=O)CC(OC(C)=O)C(C)(C)O4)ccc2c1C=CC(C)(C)O2 (configuration not stated) 0
COC(=O)[C@@H]1OC(=O)C2OC23[C@@]1(C)CCC1[C@@]2(C)CCC(=O)C(C)(C)C2C[C@@H](OC(C)=O)[C@]13C (some centres not stated) 0

same assay, conditions: library: Tocriscreen; 2 uM; 2 weeks

Neuronal differentiation score, inactive:
O=C(Nc1ccccc1)N[C@@H]1C[C@@H](C(=O)O)Nc2cc(Cl)cc(Cl)c21 0
CN(C)C(=O)n1nnnc1Cc1ccc(-c2ccccc2)cc1 0
CCc1ccc(OCc2ccccc2C(=O)Nc2ccc3nc(C)cc(N)c3c2)cc1 0
COc1ccc(Nc2nccc(NCCO)n2)cc1 [Cardiogenol C hydrochloride] 0

test system: ReNCell VM; assay: dopaminergic neuron differentiation score (TH+ cell fraction vs untreated, manual image score) (score (0 to 3)); higher = more TH+ dopaminergic neuron differentiation; conditions: library: LOPAC; 2 uM; 4 weeks; BDNF 10 ng/ml + GDNF 10 ng/ml

Dopaminergic neuron differentiation score, inactive:
NCCSSCCN [Cystamine dihydrochloride] 0
CCCCS(=N)(=O)CCC(N)C(=O)O (racemic) [DL-Buthionine-[S,R]-sulfoximine] 0
COc1ccccc1NC(=O)Nc1nc(-c2cccnc2)nc2ccccc12 0
N[C@@H](C(=O)N[C@@H]1C(=O)N2C(C(=O)O)=C(Cl)CS[C@H]12)c1ccccc1 [Cefaclor] 0
COc1ccc(CC(C)NCC(O)c2ccc(O)c(NC=O)c2)cc1 (configuration not stated) [Formoterol] 0
CCN(CC)C(=O)c1ccc(O)c(OC)c1 [Vanillic acid diethylamide] 0
C[N+](C)(C)CCOC(=O)CCC(=O)OCC[N+](C)(C)C [Succinylcholine chloride] 0
